Assay [1] deals with PD-L1 with the extracellular domain (ED) deleted. In words: co-IP; HEK293T cells transfected with the indicated plasmids (PD-L1 and its deletion mutants).
Assay [2] has as its target PD-L1-ΔCyto. Described as above.

These are yes or no findings as the source states them, for the method shown. In cells and extracts the contact can be indirect. For some assays here: A result given as binding can be weak or reduced; the word gives no strength.

B1: SA1 in HEK293T cells (protein, UniProt Q8WVM7 1-1258)
chain: MITSELPVLQDSTNETTAHSDAGSELEETEVKGKRKRGRPGRPPSTNKKPRKSPGEKSRIEAGIRGAGRGRANGHPQQNGEGEPVTLFEVVKLGKSAMQSVVDDWIESYKQDRDIALLDLINFFIQCSGCRGTVRIEMFRNMQNAEIIRKMTEEFDEDSGDYPLTMPGPQWKKFRSNFCEFIGVLIRQCQYSIIYDEYMMDTVISLLTGLSDSQVRAFRHTSTLAAMKLMTALVNVALNLSIHQDNTQRQYEAERNKMIGKRANERLELLLQKRKELQENQDEIENMMNSIFKGIFVHRYRDAIAEIRAICIEEIGVWMKMYSDAFLNDSYLKYVGWTLHDRQGEVRLKCLKALQSLYTNRELFPKLELFTNRFKDRIVSMTLDKEYDVAVEAIRLVTLILHGSEEALSNEDCENVYHLVYSAHRPVAVAAGEFLHKKLFSRHDPQAEEALAKRRGRNSPNGNLIRMLVLFFLESELHEHAAYLVDSLWESSQELLKDWECMTELLLEEPVQGEEAMSDRQESALIELMVCTIRQAAEAHPPVGRGTGKRVLTAKERKTQIDDRNKLTEHFIITLPMLLSKYSADAEKVANLLQIPQYFDLEIYSTGRMEKHLDALLKQIKFVVEKHVESDVLEACSKTYSILCSEEYTIQNRVDIARSQLIDEFVDRFNHSVEDLLQEGEEADDDDIYNVLSTLKRLTSFHNAHDLTKWDLFGNCYRLLKTGIEHGAMPEQIVVQALQCSHYSILWQLVKITDGSPSKEDLLVLRKTVKSFLAVCQQCLSNVNTPVKEQAFMLLCDLLMIFSHQLMTGGREGLQPLVFNPDTGLQSELLSFVMDHVFIDQDEENQSMEGDEEDEANKIEALHKRRNLLAAFSKLIIYDIVDMHAAADIFKHYMKYYNDYGDIIKETLSKTRQIDKIQCAKTLILSLQQLFNELVQEQGPNLDRTSAHVSGIKELARRFALTFGLDQIKTREAVATLHKDGIEFAFKYQNQKGQEYPPPNLAFLEVLSEFSSKLLRQDKKTVHSYLEKFLTEQMMERREDVWLPLISYRNSLVTGGEDDRMSVNSGSSSSKTSSVRNKKGRPPLHKKRVEDESLDNTWLNRTDTMIQTPGPLPAPQLTSTVLRENSRPMGDQIQEPESEHGSEPDFLHNPQMQISWLGQPKLEDLNRKDRTGMNYMKVRTGVRHAVRGLMEEDAEPIFEDVMMSSRSQLEDMNEEFEDTMVIDLPPSRNRRERAELRPDFFDSAAIIEDDSGFGMPMF
As to B1, the binding entry in assay [1] is listed as “binds”; in assay [2] it was “no binding”.

The values are drawn from PMC7904913.
